# Measurements as given in the supplement of paper PMC3334620.
# Over roughly 33,000 sequences, “E-score (-0.5 to 0.5)” has its median near -0.015; the highest 2% begin near 0.3. Some of the results follow.
# Target: T1, Abf1 (UniProt P14164)
# T1 sequence: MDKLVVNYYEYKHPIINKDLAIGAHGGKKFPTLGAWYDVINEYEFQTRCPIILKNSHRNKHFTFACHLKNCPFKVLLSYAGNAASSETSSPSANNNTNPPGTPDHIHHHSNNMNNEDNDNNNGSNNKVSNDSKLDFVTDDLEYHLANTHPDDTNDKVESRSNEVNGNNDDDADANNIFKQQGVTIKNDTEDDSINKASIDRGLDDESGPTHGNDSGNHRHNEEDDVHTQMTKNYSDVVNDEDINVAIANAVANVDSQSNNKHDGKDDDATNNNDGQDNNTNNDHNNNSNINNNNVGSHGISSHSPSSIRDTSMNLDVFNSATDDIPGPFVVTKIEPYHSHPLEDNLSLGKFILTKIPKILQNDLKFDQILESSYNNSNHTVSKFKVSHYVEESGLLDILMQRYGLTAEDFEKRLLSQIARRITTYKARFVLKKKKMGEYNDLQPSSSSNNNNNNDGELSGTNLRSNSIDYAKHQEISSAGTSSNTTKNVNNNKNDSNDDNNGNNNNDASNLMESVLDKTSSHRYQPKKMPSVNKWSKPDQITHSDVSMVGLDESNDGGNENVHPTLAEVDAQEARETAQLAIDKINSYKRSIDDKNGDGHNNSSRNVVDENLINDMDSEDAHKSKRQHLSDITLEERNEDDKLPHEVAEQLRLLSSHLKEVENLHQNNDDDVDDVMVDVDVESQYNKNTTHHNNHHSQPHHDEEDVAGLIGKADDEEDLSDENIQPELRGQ
# Assay: PBM E-score (8-mer binding enrichment) (E-score (-0.5 to 0.5)); higher = stronger / more preferred TF binding
# Conditions: protein concentration: 200 nM; construct: GST-full length
# Method in brief: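 Using PURExpress in vitro transcription/translation, GST-tagged yeast transcription factors were made in full-length or DNA-binding-domain form. These were applied at about 100-200 nM to double-stranded universal all-10-mer Agilent arrays, and bound protein was detected with fluorescent anti-GST. Scans were normalised with masliner before the Universal PBM Analysis Suite assigned E-scores to ungapped eight-base words pooled with their reverse complements.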
row,Sequence,PBM E-score
1,GCAAACGC,0.00943
2,AATATTCG,0.142
3,AGGCCTCG,-0.0392
4,AGATGACT,-0.0855
5,ACCGACAC,0.0328
6,ACCGGGCC,-0.0476
7,AGGTATAC,0.0716
8,GCTTTGAC,0.00967
9,ATGCTCCA,-0.08
10,GAATTCGC,0.0899
11,CGACGCCG,0.194
12,AAAAGAGG,-0.191
13,GACGTATC,0.189
14,CAATCTCG,0.0422
15,AAGGACGA,0.14
16,TCCAACAA,0.123
17,ACTAACAA,0.00481
18,TAGTAGGA,-0.0503
19,CCGACCAC,-0.105
20,AGCGCAAT,-0.0482
21,AAATTACT,0.146
22,CTGAATTA,0.146
23,CTGCTAGC,-0.3
24,GAAAGTGA,0.272
25,AACCAGAA,0.0884

row,Sequence,PBM E-score
1,AGATCTTG,-0.123
2,AACTCTGA,0.116
3,ACTAGGAC,-0.201
4,CTGCACTA,0.0411
5,AGGCATAA,-0.151
6,CAATATAG,-0.0172
7,GGTTTAAA,0.172
8,ACGTCGAA,0.163
9,AAGTCCGT,0.142
10,CAGAAAGC,-0.0494
11,ATGGTCGG,-0.132
12,AGTACCGC,-0.117
13,ATTGTCTG,-0.0522
14,GTGCACAA,0.0931
15,ACTTTGTA,0.0728
16,CGGCCTAC,-0.0261
17,ATCTACAC,0.111
18,CCCGATAG,-0.2
19,CTTACTGA,-0.0877
20,CGTTATGC,0.0121
21,CAATTCCA,-0.00098
22,ACAAAAAG,0.225
23,CCCCTACC,-0.163
24,AGCCACAG,-0.103
25,CGATGCTC,-0.186

row,Sequence,PBM E-score
1,TAAACGGA,0.133
2,TCACTGCA,0.214
3,ATGCTGAC,-0.0732
4,ACAAGCAT,0.115
5,GAAGTAGA,0.0549
6,CGATACGA,0.109
7,ATCATTTG,0.276
8,GGGTAATA,-0.00728
9,AATAAGAT,0.107
10,TGGGTACA,0.0397
11,TAGCGTGA,0.00907
12,ACTTTTAT,0.0154
13,CGGCTCGC,-0.0178
14,CATTGAAG,-0.133
15,TTAGCGAA,0.0503
16,GATATGTA,0.152
17,CCCTACTA,-0.127
18,CAGCAAAC,-0.0634
19,GTTAGGAA,-0.133
20,TCCGGAAA,-0.0899
21,CGCACCCG,0.034
22,TCGACGAA,0.349
23,GCCAGCAC,-0.0263
24,TAGACGCA,0.0635
25,ACTTAAAC,0.129

row,Sequence,PBM E-score
1,CAACTACC,-0.0382
2,CGAGCGCA,0.155
3,ATGCCCGC,-0.12
4,CACATGAG,-0.234
5,CCGGGCGC,-0.151
6,CATGAAAG,0.0673
7,CATACGGA,0.295
8,AGCGAGGA,-0.12
9,ATGTGTTC,-0.0352
10,GCTGCAAC,-0.0148
11,GCGCAAAC,0.0443
12,AGGGCAAA,-0.143
13,AGGACGGA,-0.0392
14,GCATAATA,0.192
15,AAGCAGGG,0.00394
16,AAACCGAG,-0.0363
17,ATGACACG,0.118
18,AGCGTCGC,-0.00567
19,CCGGGCGA,0.0279
20,CACTAAAC,0.139
21,AAACGGCG,0.206
22,AGTGTAAT,0.0847
23,ACAATTTG,0.11
24,AAACTGTA,0.0591
25,GGTGGGGA,-0.108

row,Sequence,PBM E-score
1,AAATATAA,0.136
2,CCACGAGG,0.081
3,CTGTCCAC,-0.0164
4,ACTACAGC,-0.156
5,AGTACAAT,0.0906
6,AGACTTGA,-0.0542
7,GCATGCGC,-0.0816
8,CGTCTCCC,0.158
9,AACACGCA,-0.0592
10,TGTTGGAA,-0.0967
11,CATGCCCC,-0.22
12,GGCTCAAC,-0.0452
13,AGCGGGTA,-0.215
14,TGTGCAAA,-0.137
15,CATATCTA,0.162
16,CCGAAATC,0.0401
17,CCCTTACG,-0.0713
18,CGTCTTAC,0.199
19,GGGCAGAA,0.0406
20,AGACGCAA,-0.044
21,GCAGAGGC,-0.255
22,AAATAACG,0.171
23,ATCGCCTG,-0.127
24,CGGGCGAG,-0.0337
25,CTCGTAGC,0.0542

# Rewritten tab-delimited: part of the list above
row	Sequence	PBM E-score
1	AAATATAA	0.136
21	GCAGAGGC	-0.255
23	ATCGCCTG	-0.127
24	CGGGCGAG	-0.0337

# Additional records follow.

row,Sequence,PBM E-score
1,ATCTGTTC,-0.016
2,GGATTCTA,0.029
3,CACTTTAG,-0.178
4,ATTGAGAC,0.106
5,GGATGTAA,0.0326
6,ATCGCAGG,0.0596
7,AGCAGATC,0.0833
8,ATATTTGC,0.194
9,GAGCGTGC,0.0109
10,AGAATCCG,-0.0715
11,AATCTTCT,0.0766
12,TCGGGAGA,-0.127
13,CAAGGAGG,-0.25
14,ATGCCCCA,-0.153
15,CGACTAGC,-0.0426
16,CTGTCTTA,0.0626
17,AGACACGG,0.11
18,AGCCGAGA,-0.0902
19,GGCACCCC,-0.299
20,AACATCTG,-0.0273
21,CTGCGAAG,-0.0967
22,AACAGAGC,-0.0439
23,CTGTGACA,0.179
24,CCGCTGCA,-0.144
25,ATCAGGAA,0.0324

# Random excerpt: 6 entries already listed, in no set order.
row,Sequence,PBM E-score
11,AATCTTCT,0.0766
20,AACATCTG,-0.0273
7,AGCAGATC,0.0833
5,GGATGTAA,0.0326
15,CGACTAGC,-0.0426
18,AGCCGAGA,-0.0902

# Later entries.

row,Sequence,PBM E-score
1,ATAGACGC,-0.0898
2,AAGATCAT,0.289
3,CTAAGTTA,0.131
4,CCTCTGAC,-0.306
5,CGAGCCAC,-0.0571
6,CAACAACC,0.0708
7,CGCGCAAG,-0.009
8,TCCTCAGA,-0.125
9,ACATTTTG,0.0732
10,ACGGTGTG,0.119
11,GTACGCTA,0.0512
12,ACAGAAGA,0.152
13,CCGAATAA,0.156
14,CCACAAAG,-0.0409
15,ACCCACAT,-0.0894
16,AGGGGATG,0.00695
17,AGATGCCG,0.0033
18,AAGTAGGC,-0.055
19,ACGATGGA,0.22
20,ACCGCGAG,-0.167
21,TTAGTAAA,-0.00729
22,GACTAGCC,-0.161
